Reference: US11952369B2 (Kadmon Corporation, LLC, priority 2022, dated 2024)
For some assays here: For at least one compound, name, drawing or mass did not settle the structure. Some of these results come from one statement about several compounds together.

How the values were obtained:
[1] = Phase 1 study part 2: metabolite identification and profiling in plasma, urine and feces; assay type: in vivo, human
Method: To determine the most appropriate sampling pools for metabolite identification/profiling, plasma, urine, and fecal samples were pooled based on mass balance data obtained as described above. Plasma samples were pooled for individual subjects by time points that represented at least 80% of the plasma total radioactivity, as well as pooled across subjects before dosing and at 4-hour and 8-hour time points. Urine samples were pooled from 0 to 24 hours for individual subjects and across subjects for predose and 0- to 6-hour intervals. Fecal samples were pooled for individual subjects depending on time points that represented at least 80% of the […] total radioactivity and across subjects at 0- to 24- and 24- to 48-hour intervals.
[^14C]-belumosudil concentrations were quantified by LC-MS/MS. Chemical structures were then identified for those radioactive components that accounted for >10% of circulating radioactivity in plasma and >10% of the dose in urine and feces. Radioactive components that represented <10% of circulating radioactivity in plasma and <10% of the dose in urine and feces were also identified. Metabolite identification was then performed using accurate mass positive and negative ion full scan and positive ion product ion analyses. […] Any identified components were compared with [^14C] radiochromatograms to identify the metabolite. […]

patients with cGVHD = patients with cGVHD with >25% body surface area erythematous rash or NIH mouth score of >4; cited from earlier work
human T cell = experiment: Ex-vivo or in vitro human T cell assays; assay type: cell-based; details: via regulation of STAT3/STATS phosphorylation and shifting Th17/Treg balance
[2] = system: aberrant pro-fibrotic signaling; experiment: Pro-fibrotic signaling in vitro

Q: With `O=C(O)COc1cccc(-c2nc(Nc3ccc4[nH]ncc4c3)c3ccccc3n2)c1` [KD025m2, 2-(3-(4-(1H-indazol-5-ylamino)quinazolin-2-yl)phenoxy)acetic acid] as the compound, how does the “share of the radioactive dose accounted for in feces” value [1] read?
A: > 10%

Q: Which “overall response rate (ORR)” value (patients with cGVHD) does the source give for `C=CC(=O)N1CCC[C@@H](n2nc(-c3ccc(Oc4ccccc4)cc3)c3c(N)ncnc32)C1` [ibrutinib] here?
A: 67%

Q: With `CC(C)NC(=O)COc1cccc(-c2nc(Nc3ccc4[nH]ncc4c3)c3ccccc3n2)c1` [Belumosudil, 2-{3-[4-(1H-indazol-5-ylamino)-2-quinazolinyl]phenoxy}-N-(propan-2-yl) acetamide] as the compound, how does the “effect on proinflammatory responses” value (human T cell) read?
A: down-regulated proinflammatory responses

Q: What about the “share of the radioactive dose accounted for in feces” value [1] of the same compound?
A: > 10%

Q: And the “effect on aberrant pro-fibrotic signaling” value [2]?
A: inhibited aberrant pro-fibrotic signaling
